## Screening data, single-dose tests

Mtb cholesterol medium: 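Phenotypic screen: M. tuberculosis growth, cholesterol and DPPC medium, 4 days; the read-out is not stated. Tested at 50 µM. Higher reads as more growth inhibition (inferred: compounds with an IC50 in retests scored well above the rest). About 69,000 compounds were tested under these conditions; 0.54% (about 370) showed 50% or more at least once.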
Mtb glucose medium: 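Whole-cell growth test on Mycobacterium tuberculosis, read after 3 days in glucose-containing 7H9 medium; the read-out is not stated. Tested at 50 µM. Higher reads as more growth inhibition (inferred: compounds with an IC50 in retests scored well above the rest). Size under these conditions: about 69,000 compounds, about 760 of them at 50% or above in at least one test.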

Results are given as percent effect. The controls that fix the scale are not given in the record; negative values are as filed. This is an unselected part of the compounds tested. Two or more numbers in one place are separate tests of the same structure; such repeats can differ widely.

With O=C(CN1CCC(c2ccnn2CCO)CC1)NCC1CCCCC1 the screen gave Mtb cholesterol medium: 7.594%; Mtb glucose medium: -6.163%.
With CS(=O)(=O)NC1CCCN(C(=O)NCc2cc[nH]n2)C1 (stereo unspecified) the screen gave Mtb cholesterol medium: -6.879%; Mtb glucose medium: 14.41%.
With COCCC(=O)N1CC[C@@H](N2CCN(C)CC2)[C@@H]1Cc1ccccc1 the screen gave Mtb cholesterol medium: 7.394%; Mtb glucose medium: -0.1092% and -29.86%.
With O=C(NCC1(O)CCSCC1)c1nccc2ccccc12 the screen gave Mtb cholesterol medium: -17.2%; Mtb glucose medium: 6.853% and -5.754%.
With CCCC(=O)Nc1cccc([C@H]2C[C@@H](NC(C)=O)CCO2)c1 the screen gave Mtb cholesterol medium: 3.429% and -18.53%; Mtb glucose medium: 1.78%.
With O=C1NCC2(CCCN(Cc3ccccc3OCCO)C2)O1 (stereo unspecified) the screen gave Mtb cholesterol medium: -6.945%; Mtb glucose medium: -18.75%.
With Cc1nn(C)c2cn(CC(=O)NC3CCSCC3)nc12 the screen gave Mtb cholesterol medium: -19.77%; Mtb glucose medium: 3.905%.
With O=C(c1cccnc1O)N(Cc1cccs1)CC1CCCO1 (stereo unspecified) the screen gave Mtb cholesterol medium: 2.291%; Mtb glucose medium: 10.42%.
With Cc1cc(CN2CCOC(CN(C)C)C2)no1 (stereo unspecified) the screen gave Mtb cholesterol medium: -14.49%; Mtb glucose medium: -9.234%.
With CSc1ccccc1NC(=O)CCN1CCC(C(=O)N(C)C)CC1 the screen gave Mtb cholesterol medium: 1.333%; Mtb glucose medium: -25.9%.
With CCS(=O)(=O)c1ncc(CN(C)Cc2ccccc2OC)n1CCOC the screen gave Mtb cholesterol medium: 0.3351% and 12.67%; Mtb glucose medium: 9.476%.
With Cc1nn(CCO)cc1CN1CCC(C(C)N2CCCC2)CC1 (stereo unspecified) the screen gave Mtb cholesterol medium: 2.883%; Mtb glucose medium: 2.97% and 16.95%.
With O=C(N[C@@H]1CCN(C(=O)c2ccc(F)cc2Cl)C[C@H]1O)c1ccccn1 the screen gave Mtb cholesterol medium: 3.712% and -16.37%; Mtb glucose medium: -17.18%.
With Cc1ccc(C(NC(=O)C2CC2)c2cccc(S(C)(=O)=O)c2)cc1 (stereo unspecified) the screen gave Mtb cholesterol medium: -6.557%; Mtb glucose medium: -3.946%.
With Cc1nn(C(C)C)cc1S(=O)(=O)N(C)Cc1nonc1C the screen gave Mtb cholesterol medium: 1.895%; Mtb glucose medium: 10.26%.
With CSc1cc(CNC(=O)CCOc2ccccc2C)ccn1 the screen gave Mtb cholesterol medium: -1.767%; Mtb glucose medium: -7.223% and 6.773%.
With CC1CN(Cc2noc(C3CC3)n2)CCN1Cc1nccn1C (stereo unspecified) the screen gave Mtb cholesterol medium: 12.08%; Mtb glucose medium: 21.49%.
With CC(C)N(C)CC(=O)NCc1ccccc1N1CCN(C)CC1 the screen gave Mtb cholesterol medium: 5.374%; Mtb glucose medium: -46.8%.
With Cc1cccc(C(=O)N2CCn3cnc(COCC4CC4)c3C2)n1 the screen gave Mtb cholesterol medium: -25.45% and -6.585%; Mtb glucose medium: 6.05% and -7.328%.
With Cc1ccc(C)c(OCc2cc(C(=O)N(C)Cc3nonc3C)no2)c1 the screen gave Mtb cholesterol medium: -11.98% and 9.909%; Mtb glucose medium: 13.68%.
With CCc1cnc(N2CCc3ncnc(N4CCN(C)CC4)c3CC2)nc1.O=C(O)C(F)(F)F the screen gave Mtb cholesterol medium: -17.84%; Mtb glucose medium: -1.854% and -13.24%.
With CC(C)[C@H](Nc1nc(C2CCCC2)nc2c1cnn2C)C(N)=O the screen gave Mtb cholesterol medium: -11.46%; Mtb glucose medium: -6.737%.
With CC(C)CN1CCC(C(=O)NCCNC(=O)c2ccco2)CC1 the screen gave Mtb cholesterol medium: -24.61%; Mtb glucose medium: -3.164% and -19.18%.
With CC(C)n1ccnc1CN1CCCN(C(=O)c2cscn2)CC1 the screen gave Mtb cholesterol medium: 2.395%; Mtb glucose medium: -7.97%.
With COCCO[C@@H]1CCN(C(=O)c2ccc(C)o2)[C@@H]1Cc1cnn(C)c1 the screen gave Mtb cholesterol medium: 0.5015% and -1.698%; Mtb glucose medium: -8.072%.
With O=C(O)C(F)(F)F.[H][C@]12CCC[C@@H](CNc3nccn3C)[C@@]1([H])CN(CC1CC1)C2 the screen gave Mtb cholesterol medium: 8.634%; Mtb glucose medium: -1.559% and 0.5721%.
With O=C(NCCn1cccn1)Nc1cc(C(=O)N2CCOCC2)ccc1Cl the screen gave Mtb cholesterol medium: 1.949%; Mtb glucose medium: 4.161%.
With Cc1n[nH]c(C2CN(C(=O)Cn3ccccc3=O)CCO2)n1 (stereo unspecified) the screen gave Mtb cholesterol medium: -20.97%; Mtb glucose medium: -21.41%.
With Cc1cc(C[S+]([O-])Cc2ccccc2F)on1 (stereo unspecified) the screen gave Mtb cholesterol medium: 1.849%; Mtb glucose medium: 17.25%.
With COc1cccc2cc(CNC(=O)N3CCC(C(N)=O)CC3)oc12 the screen gave Mtb cholesterol medium: -15.94%; Mtb glucose medium: -24.7%.
With Cc1nc(CN2CC3(CCN(c4cnccn4)C3)CC2=O)cs1.O=C(O)C(F)(F)F (stereo unspecified) the screen gave Mtb cholesterol medium: -6.354%; Mtb glucose medium: -9.066%.
With CC(C)n1ncc2c1NC(=O)CC21C(=O)Nc2c(Cl)cccc21 (stereo unspecified) the screen gave Mtb cholesterol medium: -3.824%; Mtb glucose medium: -2.133%.
With O=C(CNc1cc(F)ccc1OC(F)F)NCC(F)(F)F the screen gave Mtb cholesterol medium: 0.7285% and -2.239%; Mtb glucose medium: -8.593%.

Measurements from “University of Dundee, Small-Polar-MMV Screening Library” (2021), ChEMBL document CHEMBL3988442.